Among all 59,000 compounds or so, about 6,500 (11%) were called active. Inconclusive results, whose numbers are uncertain, are shown with a selection of clear calls. No stated cut-off is given here; in the data, active means max dye-equivalent concentration above about 10 nM; inconclusive means mostly about 1.1 nM to 9.6 nM; inactive means weaker than that. Some compounds were tested as several samples or in several runs, with calls that do not always agree.
Test: qHTS Assay for Spectroscopic Profiling in A350 Spectral Region
Settings: Compound autofluorescence, 340/450 nm, Alexa 350 dye-equivalents; active compounds read high

Structure (SMILES)	max dye-equivalent concentration	outcome
N#C/C(=C\c1ccc(O)c(O)c1)C(=O)NCc1ccccc1	inactive	
CCc1ccccc1NC(=O)Cn1nnc(-c2cccs2)n1	inactive	
COC(=O)c1ccccc1N=C(SC)N(C)C	inconclusive: 2.4 nM	
O=c1c2c3c(sc2nc2sc(C4CC4)nn12)CCCC3	inconclusive: 3.3 nM	
C=C1c2cccc(O)c2C(O)=C2C(=O)[C@@]3(O)C(O)=C(C(N)=O)C(=O)[C@@H](N(C)C)[C@@H]3[C@@H](O)[C@H]12	inactive	
COCCCNc1nc(=S)[nH]c2cc(OC)c(OC)cc12	inconclusive: 3.2 nM	
O=C(Cn1cnc2ccccc2c1=O)NCCC(=O)N1CCN(c2ccccc2)CC1	inconclusive: 1.6 nM	
CCC(COC(=O)Nc1cccc(C)c1)NC(=O)OCC(C)C (centres undefined)	inactive	
O=C(Nc1ccon1)c1cc(-c2ccccc2)nc2ccccc12	inactive	
CCOC(=O)CSc1cn2c(n1)CCC2	inconclusive: 1.5 nM	
Cc1ccc(CNC(=O)C2CCN(S(=O)(=O)N3CCOCC3)CC2)cc1	inconclusive: 5.4 nM	
CCC(C)(C)NC(=O)C(c1ccccc1F)N(Cc1ccco1)C(=O)c1csnn1 (centres undefined)	inconclusive: 2.3 nM	
COC(=O)c1cc2c([nH]c3ccccc32)c(C)n1	inconclusive: 6.5 nM	
CCOC(=O)c1c(C)n(C)c2ccc(O)c(CN3CCCCC3)c12	inconclusive: 3.8 nM	
O=C(O)CSc1nnc(-c2ccncc2)n1CCc1ccccc1	inconclusive: 2.6 nM	
O=C(NCc1ccco1)C1CC(=O)N(c2ccc(O)cc2)C1 (centres undefined)	inconclusive: 1.4 nM	
COc1ccc(-c2oc3cc(OC)c(OC(C)=O)c(OC)c3c(=O)c2OC)cc1OC(C)=O	inconclusive: 3.3 nM	
Cc1c(C(=O)NCCCN2CCCC2=O)oc2ccccc12	inactive	
COC(=O)c1cc(S(=O)(=O)N2CCC(C)CC2)ccc1F	inconclusive: 6.5 nM	
CC1CCCN(CCCNC(=O)c2coc3nc4ccccc4nc23)C1 (centres undefined)	active: 2500 nM	
CC(C)Cn1c2c(c(O)c(C(=O)Nc3ncccc3O)c1=O)CCCC2	inconclusive: 6.4 nM	
Cc1cc2oc(=O)cc(CN3CCC(C)CC3)c2c(C)c1Cl	inconclusive: 2.5 nM	
COc1cc(OC)cc(C(=O)Nc2ncc3c(n2)CC(C)(C)CC3=O)c1	inconclusive: 7.7 nM	
COc1ccc(C(=O)Nc2cccc(C(=O)N3CCN(C)CC3)c2)cc1	inactive	

Structure (SMILES)	max dye-equivalent concentration	outcome
O=C(c1cccc(Cl)c1)N1CCN(c2ccccn2)CC1	inactive	
Cc1cc2cc(CN(Cc3ccco3)C(=O)NCc3ccccc3)c(=O)[nH]c2cc1C	inconclusive: 2.1 nM	
Cc1sc(NC(=O)COc2cccc(-n3cnnn3)c2)c(C#N)c1C	inconclusive: 1.2 nM	
CN(C)CCNC(=O)C12CC3(C)CC(C)(CC(C)(C3)C1)C2	inconclusive: 2 nM	
COc1cccc(-c2ccc3ncnc(NCc4ccccc4)c3c2)c1	inactive	
Cn1cc(/C=N/n2cnc3scc(-c4ccc(Cl)cc4)c3c2=O)c2ccccc21	active: 32 nM	
CC(=O)Nc1ccc(-c2nn[nH]n2)cc1Cl	inconclusive: 1.7 nM	
Cc1ccc(C2C(=O)N(C3CCC(C)CC3)CC(=O)N2C2CC2)cc1 (centres undefined)	inactive	
CC(CN1CCCCC1)OC(=O)c1cc2ccccc2o1 (centres undefined)	inconclusive: 1.3 nM	
CCNc1ncc2nc(-c3cccs3)c(=O)n(CCc3ccccc3)c2n1	active: 12 nM	
COc1cc(NCC[C@@H]2CCCCN2)c2ncccc2c1	active: 11 nM	
COc1ccc2c(=O)cc(-c3ccccc3)oc2c1O	inactive	
COc1ccc2nc(NCc3ccccc3)[nH]c2c1	inactive	
Cc1cccc2c(=O)c(C(=O)N3CCCCCC3)c[nH]c12	inconclusive: 3.3 nM	
Cc1cc(C)nc(N2CCN(c3nnnn3-c3ccccc3)CC2)n1	inconclusive: 1.5 nM	
COc1ccc(C2C(C#N)=C(SC)NC3=C2C(=O)CC(C)(C)C3)cc1 (centres undefined)	active: 19 nM	
CCNC(=O)CCc1nc(-c2ccc(C(C)(C)C)cc2)no1	inactive	
CC(C)CCNC(=O)NC(=O)COc1ncnc2sccc12	active: 10 nM	
CCOC(=O)c1c(N)sc2c(NC(C)=O)cccc12	active: 24 nM	
COc1ccc2[nH]c(=O)c(CN(C(=O)C3CCCO3)c3cccc(C)c3)cc2c1 (centres undefined)	active: 230 nM	
Cc1cccnc1NC(=O)c1c(O)c2cccc3c2n(c1=O)CCC3	inconclusive: 5.4 nM	
CC(=O)c1cnc(Nc2nc(C)c3ccc(C)cc3n2)nc1C	inconclusive: 2 nM	
N#Cc1ccc(CN2CCC3(CC2)CCN(C(=O)c2cnccn2)CC3)cc1	inactive	
CCOC(=O)N1CCN(C(=O)c2ccc3nc4cc(Cl)ccc4c(=O)n3c2)CC1	active: 1300 nM	

For reference, part of the list above.
Structure (SMILES)	max dye-equivalent concentration	outcome
CC(C)Cn1c2c(c(O)c(C(=O)Nc3ncccc3O)c1=O)CCCC2	inconclusive: 6.4 nM	
Cc1cc2oc(=O)cc(CN3CCC(C)CC3)c2c(C)c1Cl	inconclusive: 2.5 nM	
COc1cc(OC)cc(C(=O)Nc2ncc3c(n2)CC(C)(C)CC3=O)c1	inconclusive: 7.7 nM	
COc1ccc(C(=O)Nc2cccc(C(=O)N3CCN(C)CC3)c2)cc1	inactive	
O=C(c1cccc(Cl)c1)N1CCN(c2ccccn2)CC1	inactive	
Cc1cc2cc(CN(Cc3ccco3)C(=O)NCc3ccccc3)c(=O)[nH]c2cc1C	inconclusive: 2.1 nM	
Cc1sc(NC(=O)COc2cccc(-n3cnnn3)c2)c(C#N)c1C	inconclusive: 1.2 nM	
CN(C)CCNC(=O)C12CC3(C)CC(C)(CC(C)(C3)C1)C2	inconclusive: 2 nM	
COc1cccc(-c2ccc3ncnc(NCc4ccccc4)c3c2)c1	inactive	
Cn1cc(/C=N/n2cnc3scc(-c4ccc(Cl)cc4)c3c2=O)c2ccccc21	active: 32 nM	
CC(=O)Nc1ccc(-c2nn[nH]n2)cc1Cl	inconclusive: 1.7 nM	
Cc1ccc(C2C(=O)N(C3CCC(C)CC3)CC(=O)N2C2CC2)cc1 (centres undefined)	inactive	
CC(CN1CCCCC1)OC(=O)c1cc2ccccc2o1 (centres undefined)	inconclusive: 1.3 nM	
CCNc1ncc2nc(-c3cccs3)c(=O)n(CCc3ccccc3)c2n1	active: 12 nM	
COc1cc(NCC[C@@H]2CCCCN2)c2ncccc2c1	active: 11 nM	
COc1ccc2c(=O)cc(-c3ccccc3)oc2c1O	inactive	
COc1ccc2nc(NCc3ccccc3)[nH]c2c1	inactive	
Cc1cccc2c(=O)c(C(=O)N3CCCCCC3)c[nH]c12	inconclusive: 3.3 nM	
Cc1cc(C)nc(N2CCN(c3nnnn3-c3ccccc3)CC2)n1	inconclusive: 1.5 nM	
COc1ccc(C2C(C#N)=C(SC)NC3=C2C(=O)CC(C)(C)C3)cc1 (centres undefined)	active: 19 nM	
CCNC(=O)CCc1nc(-c2ccc(C(C)(C)C)cc2)no1	inactive	
CC(C)CCNC(=O)NC(=O)COc1ncnc2sccc12	active: 10 nM	
CCOC(=O)c1c(N)sc2c(NC(C)=O)cccc12	active: 24 nM	
COc1ccc2[nH]c(=O)c(CN(C(=O)C3CCCO3)c3cccc(C)c3)cc2c1 (centres undefined)	active: 230 nM	
Cc1cccnc1NC(=O)c1c(O)c2cccc3c2n(c1=O)CCC3	inconclusive: 5.4 nM	
CC(=O)c1cnc(Nc2nc(C)c3ccc(C)cc3n2)nc1C	inconclusive: 2 nM	

(listing goes on)

Structure (SMILES)	max dye-equivalent concentration	outcome
CCOC(=O)c1cnn(-c2cc(C)c3cc(C)cc(C)c3n2)c1N	inconclusive: 1.2 nM	
Cc1ccccc1NS(=O)(=O)c1cc(C(=O)N2CCCC2)ccc1C	inconclusive: 1.2 nM	
CS(=O)(=O)N1CCC[C@@]2(CCN(C(=O)Nc3cccc(C#N)c3)C2)C1	inactive	
CC(C)Oc1ccc(C2C(C(=O)c3ccco3)=C(O)C(=O)N2CCCN(C)C)cc1 (centres undefined)	inconclusive: 1.2 nM	
COc1ncc2nc(-c3cc(F)cc(F)c3)c(=O)n(C[C@H]3CCCO3)c2n1	inconclusive: 5.7 nM	
CC(=O)OCC(=O)[C@@]1(OC(C)=O)[C@@H](C)C[C@H]2[C@@H]3C[C@H](F)C4=CC(=O)C=C[C@]4(C)[C@@]3(F)[C@@H](O)C[C@@]21C	inconclusive: 2.5 nM	
CCn1c(=N)n(CC(O)COc2cccc(C)c2)c2ccccc21 (centres undefined)	active: 270 nM	
c1ccc2c(c1)nc(-c1ccncc1)n1nnnc21	active: 45 nM	
O=C(O)c1ccccc1-c1ccccc1C(=O)NCc1ccco1	inconclusive: 5.2 nM	
O=C(O)c1ccc(NC(=O)C2CCCCC2)cc1	inactive	
O=c1cc(-c2ccccc2)oc2c1ccc1ccccc12	active: 19 nM	
N=C(N)S[C@H]1c2ccccc2-c2cc([N+](=O)[O-])ccc21	active: 14 nM	
CCN(CC)CCOC(=O)c1c(C)oc2ccc(OC)cc12	inactive	
CCC(NS(=O)(=O)c1ccc(C)cc1)C(=O)O (centres undefined)	inconclusive: 5.6 nM	
COC(=O)c1ccc(NC(=O)c2ccc(CN3CCOCC3)cc2)cc1	inconclusive: 3.3 nM	
Cn1cc(C(=O)NCN2CCCCC2)c2ccccc21	active: 18 nM	
C=CCN1C(=O)C2C(C(=O)NC)C3C=CC2(O3)C1C(=O)NCc1ccc(OC)cc1 (centres undefined)	inactive	
O=c1c2[nH]c3ccccc3c2ncn1CCCn1ccnc1	inactive	
CC(c1ccccc1F)n1cc(C(=O)NCCc2ccco2)nn1 (centres undefined)	active: 13 nM	
O=C1NC(=O)[C@@H]2C3c4ccccc4C=CN3[C@H](C(=O)c3cccs3)[C@H]12 (some centres undefined)	inconclusive: 3.8 nM	
COc1ccc(C2C(C(N)=O)=C(C)Nc3ncnn32)cc1 (centres undefined)	inconclusive: 2.5 nM	
O=C1C(=O)N(Cc2cccnc2)C(c2ccccn2)/C1=C(/O)c1ccccc1 (centres undefined)	inconclusive: 2.7 nM	
O=C(c1ccccc1)c1ccc2n1CC[C@H]2C(=O)O	active: 32 nM	inactive
CC(C)c1ccc(OCC(O)CN2CCN(c3ccccc3)CC2)cc1 (centres undefined)	inconclusive: 1.4 nM	

Structure (SMILES)	max dye-equivalent concentration	outcome
CCOC(=O)N1CCC(NC(=O)C2CCN(S(=O)(=O)N3CCC(C)CC3)CC2)CC1	inconclusive: 1.6 nM	
CCCC(=O)N1CCN(S(=O)(=O)c2cc(Cl)ccc2OC)CC1	inactive	
O=C(c1cn[nH]c1)c1cc(F)ccc1O	inactive	
Cc1cccc2cc(C#N)c(N3CCCC3)nc12	active: 37 nM	
CCOC(=O)c1c(NC(=O)c2ccoc2C)sc2c1CCC2	active: 570 nM	
Cc1ccccc1Nc1nn2c(=O)c3ccccc3nc2s1	inconclusive: 8.3 nM	
O=C(NC1CCCCC1NC(=O)c1ccco1)c1ccco1 (centres undefined)	inconclusive: 1.4 nM	
O=C(COc1ccccc1F)NC1CC1	inactive	
CC1(C)CC(=O)C=C(Nc2ccc(Br)cn2)C1	inconclusive: 7.3 nM	
Cc1cc2nc(NC3=NCN(CCCN4CCOCC4)CN3)nc(C)c2cc1C	active: 33 nM	
O=C(OCc1nnc(-c2ccccc2)o1)c1cc(S(=O)(=O)N2CCOCC2)c(Cl)cc1Cl	inactive	
CCn1ncc(CN2CCN(C(=O)Nc3ccccc3C(=O)OC)CC2)c1C	inconclusive: 2.2 nM	
O=C(Cn1c(-c2ccco2)nc2ccccc21)N1CCCCC1	inactive	
FC(F)(F)c1cc(-c2ccccc2)nc(N2CCCCCC2)n1	active: 27 nM	
O=c1c(-c2ccc(Cl)cc2)nc2cnc(N3CCNCC3)nc2n1Cc1cccs1	active: 25 nM	
CCC(C)C(NCc1cccc(C)c1)C(=O)O (centres undefined)	inconclusive: 3.7 nM	
Cc1nc2c(C(=O)N3CCN(c4ccccn4)CC3)cnn2c(C)c1Cc1cccc(Cl)c1	inconclusive: 3.1 nM	
COc1cc(NS(=O)(=O)c2ccc(NC(=O)c3ccc(C)o3)cc2)nc(OC)n1	inconclusive: 1.7 nM	
CCc1nc(N)c(C#N)c(-c2ccccc2OC)c1C	inconclusive: 6.7 nM	
CC(NC(=O)c1noc2c1CCCC2)c1ccccc1 (centres undefined)	active: 12 nM	
Cn1c(=O)c2ncn(CC(=O)Nc3ccc4oc(-c5cccc6ccccc56)nc4c3)c2n(C)c1=O	active: 100 nM	

Reference: PubChem BioAssay AID590 (National Center for Advancing Translational Sciences (NCATS), 2007)
